Measured data: PubChem BioAssay AID504791 (Drosophila RNAi Screening Center, 2011)

Aim: 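Factors in Argonaute-based small RNA production and activity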 (primary screen)
System: Drosophila S2-derived reporter cells
Knock-down reagent: long dsRNA against Drosophila genes, about 150-250 ng dsRNA per well (siRNA assay); about 80-120 ng (miRNA assay)
Duration: about 5 days (siRNA assay); about 4 days (miRNA assay)
Conditions: copper sulfate induction of reporters: 25 µM (siRNA assay); 200 mM stated (miRNA assay), 1-2 days before reading
Measured: 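Per-well ratio of Renilla over firefly light, expressed relative to that plate's average ratio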
Scale: siRNA reporter hit score: higher = 3 marks a strong hit with raised ratio; -3 a strong hit with lowered ratio
Rule for the call: 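First-pass picks had plate-scaled ratios over 1.5 for the siRNA assay, over 1.6 for the miRNA assay, or under 0.6; two distinct dsRNAs had to score alike on retest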
The screen tested about 23,000 reagents; this is a random part of those that have a named target and a result. In the full data, 199 (0.86%) are marked active. 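Plate-scaled ratios behind the calls are not deposited; printed light signals are raw; many rows marked increased or decreased are still called inactive.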 Entries without a mark were called inactive. Reagents against one gene are numbered here. A plus sign joins genes that one reagent is predicted to hit. Further read-outs or replicates are left out here. No sequences are given here.

| predicted target | reagent | siRNA reporter hit score | stable siRNA reporter change | miRNA reporter change | stable assay Renilla, run 1 (luminescence) |
| --- | --- | --- | --- | --- | --- |
| CG9813 | 1 | – | – | – | 7384 |
| Toll-9 | 1 | – | – | – | 7126 |
| sro (shroud) | 1 | – | – | – | 3584 |
| mod(mdg4) + pre-mod(mdg4)-U | 1 | – | – | – | 4339 |
| CtsL1 (Cathepsin L1) | 1 | – | – | – | 7059 |
| CtsL1 (Cathepsin L1) | 2 | – | – | – | 8238 |
| sNPF-R (short neuropeptide F receptor) | 1 | – | – | – | 7674 |
| CrebB (Cyclic-AMP response element binding protein B) | 1 | – | – | – | 2600 |
| Atg5 (Autophagy-related 5) | 1 | – | – | – | 8218 |
| dbe (dribble) | 1 | – | – | – | 13392 |
| CG8939 | 1 | – | – | – | 7450 |
| CG13216 | 1 | – | – | – | 7686 |
| dob (doppelganger von brummer) | 1 | – | – | – | 7211 |
| CG11842 | 1 | – | – | – | 9118 |
| CG12912 | 1 | – | reporter ratio raised past the hit cutoff | reporter ratio raised past the hit cutoff | 4267 |
| CG5191 | 1 | – | – | – | 7468 |
| CG5191 | 2 | – | – | – | 8036 |
| CG5191 | 3 | – | – | – | 8227 |
| Acsx4 (Acyl-CoA synthetase X4) | 1 | – | – | – | 7426 |
| CG13084 | 1 | – | – | – | 7156 |
| Gk1 (Glycerol kinase 1) | 1 | – | – | – | 9006 |
| Gk1 (Glycerol kinase 1) | 2 | – | – | – | 6962 |
| CG30385 | 1 | – | – | – | 7564 |
| Ugt37A1 (UDP-glycosyltransferase family 37 member A1) | 1 | – | – | – | 8069 |
| CG14304 | 1 | – | – | – | 6184 |
| Vps26 (Vacuolar protein sorting 26) | 1 | – | – | – | 7480 |
| Uvrag (UV-resistance associated gene) | 1 | – | – | – | 48597 |
| CG31089 | 1 | – | – | – | 6398 |
| CG11777 | 1 | – | – | – | 6884 |
| Ir21a (Ionotropic receptor 21a) | 1 | – | – | – | 8414 |
| CG16727 | 1 | – | – | – | 6799 |
| pnut (peanut) | 1 | – | – | – | 6850 |
| mRpL1 (mitochondrial ribosomal protein L1) | 1 | – | – | – | 6224 |
| Polr3F (RNA polymerase III subunit F) | 1 | – | – | – | 5480 |
| CG34342 | 1 | – | – | – | 6610 |
| CG34342 | 2 | – | – | – | 4743 |
| CG2698 | 1 | – | – | – | 6383 |
| CG2685 | 1 | – | reporter ratio raised past the hit cutoff | – | 9135 |
| CG1441 | 1 | – | – | – | 9266 |
| CG17272 | 1 | – | – | – | 7527 |
| PIG-H + Kmn2 | 1 | – | – | – | 7510 |
| CG1812 | 1 | – | – | – | 8947 |
| Gclc (Glutamate-cysteine ligase catalytic subunit) | 1 | – | – | reporter ratio raised past the hit cutoff | 5572 |
| Mur29B (Mucin related 29B) | 1 | – | – | – | 5684 |
| Mur29B (Mucin related 29B) | 2 | – | – | – | 7190 |
| ATP8 (retired record) | 1 | – | – | – | 5587 |
| Orc4 (Origin recognition complex subunit 4) | 1 | – | – | – | 9463 |
| Ppi1 (Protein phosphatase 1c interacting protein 1) | 1 | – | – | – | 8723 |
| CG9582 | 1 | – | – | – | 7026 |
| CG8519 | 1 | – | – | – | 6491 |
| plx (pollux) | 1 | – | – | – | 6995 |
| plx (pollux) | 2 | – | – | reporter ratio raised past the hit cutoff | 3123 |
| plx (pollux) | 3 | – | – | – | 3187 |
| CG14315 | 1 | – | – | – | 7607 |
| cid (centromere identifier) | 1 | – | – | – | 3967 |
| cid (centromere identifier) | 2 | – | – | – | 6587 |
| EndoU (Endoribonuclease U-specific) | 1 | – | – | – | 9186 |
| Tlk (Tousled-like kinase) | 1 | – | reporter ratio lowered past the hit cutoff | reporter ratio lowered past the hit cutoff | 3227 |
| Tlk (Tousled-like kinase) | 2 | – | – | – | 4187 |
| Tlk (Tousled-like kinase) | 3 | – | – | – | 3448 |
| Tlk (Tousled-like kinase) | 4 | – | – | reporter ratio lowered past the hit cutoff (active) | 3136 |
| Tlk (Tousled-like kinase) | 5 | – | – | – | 4140 |
| Tlk (Tousled-like kinase) | 6 | – | – | – | 1320 |
| Patsas | 1 | – | – | – | 86189 |
| CG8541 | 1 | – | – | – | 7020 |
| CG14454 | 1 | – | reporter ratio raised past the hit cutoff | – | 9821 |
| Obp22a (Odorant-binding protein 22a) | 1 | – | – | – | 5927 |
| vlc (vulcan) | 1 | – | – | – | 7338 |
| ZnT35C (Zinc transporter 35C) | 1 | – | – | – | 6751 |
| CG40341 (retired record) | 1 | – | – | – | 5399 |
| CG40341 (retired record) | 2 | – | – | – | 6019 |
| CG3420 | 1 | – | – | – | 6523 |
| Rpe (Ribulose-5-phosphate-3-epimerase) | 1 | – | – | – | 8881 |
| corolla | 1 | – | – | – | 8412 |
| r + CG13012 | 1 | – | – | – | 5318 |
| Nbr (Nibbler) | 1 | – | – | – | 15327 |
| syd (sunday driver) | 1 | – | – | – | 7075 |
| CG15362 | 1 | – | – | – | 7426 |
| hfw (halfway) | 1 | – | – | – | 6208 |
| CG3164 | 1 | – | – | – | 7072 |
| Obp19b (Odorant-binding protein 19b) | 1 | – | – | – | 5776 |
| IntS1 (Integrator 1) | 1 | -3 | – | – | 2.32e5 |
| nebu (nebulosa) | 1 | – | – | – | 9286 |
| nebu (nebulosa) | 2 | – | – | – | 6127 |

Laid out differently: entries from further up
CG14315
- stable assay Renilla, run 1 (luminescence): 7607

cid (centromere identifier) #1
- stable assay Renilla, run 1 (luminescence): 3967

cid (centromere identifier) #2
- stable assay Renilla, run 1 (luminescence): 6587

EndoU (Endoribonuclease U-specific)
- stable assay Renilla, run 1 (luminescence): 9186

Tlk (Tousled-like kinase) #1
- stable siRNA reporter change: reporter ratio lowered past the hit cutoff
- miRNA reporter change: reporter ratio lowered past the hit cutoff
- stable assay Renilla, run 1 (luminescence): 3227

Tlk (Tousled-like kinase) #2
- stable assay Renilla, run 1 (luminescence): 4187

Tlk (Tousled-like kinase) #3
- stable assay Renilla, run 1 (luminescence): 3448

Tlk (Tousled-like kinase) #4
- miRNA reporter change: reporter ratio lowered past the hit cutoff (active)
- stable assay Renilla, run 1 (luminescence): 3136

Tlk (Tousled-like kinase) #5
- stable assay Renilla, run 1 (luminescence): 4140

Tlk (Tousled-like kinase) #6
- stable assay Renilla, run 1 (luminescence): 1320

Patsas
- stable assay Renilla, run 1 (luminescence): 86189

CG8541
- stable assay Renilla, run 1 (luminescence): 7020
